PubChem BioAssay AID720703, Peter MacCallum Cancer Centre – 2013

- Test: 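Find kinases that boost or dampen angiotensin II-triggered EGFR transactivation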 (primary screen)
- Cells: immortalised, SV40-transformed mammary epithelial cells from human, with stable expression of tagged AT1R
- Reagents: siRNA pool against human genes, 40 nM siRNA pool per well
- Time to read-out: 72 h from transfection to lysis and read-out
- Conditions: angiotensin II stimulation (dose and duration not given); EGFR inhibitor AG1478 also listed
- Measured: 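ERK1/2 phosphorylation corrected for confluency, given as a robust z-score, mean over two replicate plates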
- Reading the numbers: phospho-ERK z-score: higher = more ERK phosphorylation after angiotensin II, relative to plate
- Active means: 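Pools were ordered by robust z-score and 50 top-ranked pools, whether they raised or lowered the signal, were chosen for secondary testing; no numeric threshold was reported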
- Meaning of the calls: active = picked for secondary screen; inactive = not picked
In all, the deposit lists 714 reagents; shown is a random part of them. 50 of all reagents (7%) count as active. 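Chosen pools sit at both extremes, so both low and high scores count as candidates; some pools appear more than once.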 A number with no mark means an inactive call. Reagent sequences are not shown.

gene knocked down | PubChem SID | phospho-ERK z-score, replicate mean
BTK | SID56478487 | 0.26
EIF2AK4 | SID152146907 | 0.77
FN3KRP | SID56479164 | 4.65 (active)
BUB1 | SID152152440 | -0.8
ADCK5 | SID56479281 | 0.16
CAMKK2 | SID135620895 | -0.26
BRD3 | SID135620912 | 0.12
MOS | SID56478732 | 0.02
CDK4 | SID56478598 | -0.42
PIP5KL1 | SID56479217 | -0.38
LATS2 | SID152149461 | -0.01
CAMK1D | SID152153083 | 1.58
CDADC1 | SID56479191 | 2.08
CHKA | SID135621235 | 3.88 (active)
PIP5K1C | SID134310630 | -0.62
GUCY2F | SID152150427 | -0.38
FGFR2 | SID152155469 | 1.19
PRAG1 | SID152147410 | 1.3
MELK | SID56478756 | -1.35 (active)
DYRK1A | SID135620889 | -1.02 (active)
EFNA3 | SID135623696 | 0.6
CKS1B | SID56478807 | 0.17
GNE | SID56479101 | 1.05
STK3 | SID152146922 | -0.94
CDKN2C | SID56478606 | -0.74
COMMD3 | SID152155344 | 0.54
EPHB6 | SID152155826 | 0.77
ITPKA | SID152154114 | -0.49
NEK6 | SID56478779 | 0.76
CMPK1 | SID56478766 | 2.25
NAGK | SID135621243 | 1.91
CAMK1G | SID56478930 | 0.21
HIPK2 | SID56478619 | 0.25
ATR | SID135620635 | -0.78
EIF2AK2 | SID56478676 | 1.55
PTK6 | SID152152810 | -0.05
IGF1R | SID152153009 | -0.48
CDK16 | SID152150805 | -0.34
BLK | SID56478485 | 0.4
CHUK | SID152149746 | 0.73
KSR1 | SID152156641 | -0.22
STK17A | SID152148521 | -0.32
MAST2 | SID152154248 | 2.96
PXK | SID152149443 | 0.96
TRIO | SID56478974 | -1.73 (active)
RIPK4 | SID135620968 | -0.86
NTRK3 | SID135620627 | 1.24
TRPM7 | SID152149681 | -0.78
TEC | SID152148252 | 0.82
GSK3B | SID56478468 | 1.23
XYLB | SID152153831 | 0.76
ABL2 | SID152153611 | 1.45
EFNB3 | SID134315611 | -0.07

7 consecutive entries already listed:
gene knocked down | PubChem SID | phospho-ERK z-score, replicate mean
TRIO | SID56478974 | -1.73 (active)
RIPK4 | SID135620968 | -0.86
NTRK3 | SID135620627 | 1.24
TRPM7 | SID152149681 | -0.78
TEC | SID152148252 | 0.82
GSK3B | SID56478468 | 1.23
XYLB | SID152153831 | 0.76
